# PMC6007958, “Identification, characterization and application of a new peptide against anterior gradient homolog 2 (AGR2)” (Oncotarget, 2018)
# Chains of the proteins cited; added tags and fusions are not shown. Residues count along the entry.
# UniProt O95994, residues 21-175: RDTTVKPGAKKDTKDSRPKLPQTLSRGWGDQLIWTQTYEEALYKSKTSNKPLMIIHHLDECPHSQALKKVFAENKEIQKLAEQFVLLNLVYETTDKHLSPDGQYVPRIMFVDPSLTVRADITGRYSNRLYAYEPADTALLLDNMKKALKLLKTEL
# Results are given in words; binding and its absence hold for the method and conditions named. Some binding calls cover weakened binding; strength is not graded here.
# T1: H10 peptide (biotin-…)
# T1 sequence (peptide, biotin (N-Terminal)): GGGSGMKMQVRIYLV
# Columns and labels:
# H10 peptide (biotin-…) [1] = target: T1, H10 peptide (biotin-…); assay: ELISA; biotinylated H10 on streptavidin coated plates; filtered spent media of MCF-7 or 22Rv1 cells (48 h, 10% FBS); detected with anti-AGR2 antibody; only the target purified
# H10 peptide (biotin-…) [2] = target: T1, H10 peptide (biotin-…); assay: SPR; immobilised H10; AGR2 and AGR3 injected at 200 nM; both purified
binding (H10 peptide (biotin-…) [1]),binding (H10 peptide (biotin-…) [2]),Molecule
binds,–,extracellular AGR2 (eAGR2) in spent media of cancer cell lines (from UniProt O95994 21-175)
–,no binding (tested: 200 nM),"AGR3 (recombinant anterior gradient protein 3, amino acids 4-166) (protein, UniProt Q8TD06 4-166) HSALGLCLLLVTVSSNLAIAIKKEKRPPQTLSRGWGDDITWVQTYEEGLFYAQKSKKPLMVIHHLEDCQYSQALKKVFAQNEEIQEMAQNKFIMLNLMHETTDKNLSPDGQYVPRIMFVDPSLTVRADIAGRYSNRLYTYEPRDLPLLIENMKKALRLIQSEL"
